The results in this text go back to US20210095265A1 (WISCONSIN ALUMNI RESEARCH FOUNDATION, published 2021).

Results are given in words; binding and its absence hold for the method and conditions named. In cells and extracts the contact can be indirect. Some entries that bind do so weakly or less than the wild type.

The test has as its target T1, Saro_2873 polypeptide from Novosphingobium aromaticivorans (subunit of BaeA), co-expressed with Saro_2872 in E. coli (Novosphingobium aromaticivorans).
T1 sequence: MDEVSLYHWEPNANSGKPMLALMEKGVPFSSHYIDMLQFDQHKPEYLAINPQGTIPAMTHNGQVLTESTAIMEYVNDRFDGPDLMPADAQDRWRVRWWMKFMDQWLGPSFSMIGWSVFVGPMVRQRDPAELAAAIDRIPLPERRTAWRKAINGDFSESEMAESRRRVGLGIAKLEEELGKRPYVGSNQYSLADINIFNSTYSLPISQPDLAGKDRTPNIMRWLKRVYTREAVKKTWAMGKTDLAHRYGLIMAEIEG
The test is described as follows: co-purification on Ni2+-NTA with a His8-tag on only one polypeptide; gel permeation chromatography.

B1: Saro_2872 polypeptide from Novosphingobium aromaticivorans (subunit of BaeA), co-expressed with Saro_2873 in E. coli (enzyme)
chain: MSALLYHGEPNGASLTVLAALAETGLDIECRRIDLLAGERHSLPGIVDPVALDLSIEGEGPVLVIDGEAMTESVFLAQYLDEAAGGVGLQPTDAYARWEMMMWCRQITERLSPAAALLGNLATSQSAIAAIPAEDFAILAARIVSDDLRERWQALNDDAVNAAQVADSETKVAAAVDRCEKQLGDGREWLMGTFSIADLVTYSWLAGMEPLRPAAFADAPLVKAWLARTAARPCVQAALARATISEPLRAWAPGPEINRWG
notes: Co-expressed with Saro_2873 from one pVP302K vector; In the H2872 construct Saro_2872 lacks its native start codon; also called Saro_2872 subunit; first polypeptide of BaeA
For B1, the binding result is reported as “binds”.
